Source: the supplement of paper PMC12889115
The list shows a part of the results. These are raw signals, not scaled to a control.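 In the initial screen, polymyxin B was used at a concentration that permeabilizes Salmonella's outer membrane but not its inner membrane. Maximum growth was set by DMSO wells with or without polymyxin B. Since plates varied, data were ranked per plate, and compounds giving the lowest OD600 advanced as hits.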

System: Salmonella enterica serovar Typhimurium SL1344
Experiment: bacterial growth OD600 after 18 h with compound and polymyxin B; higher = more bacterial growth (less inhibition)
Conditions: 50 µM, Mueller-Hinton broth

| Compound | bacterial growth OD600 (polymyxin B 0.75 µg/mL) | bacterial growth OD600 (polymyxin B 1 µg/mL) |
| --- | --- | --- |
| CC(=O)Nc1ccc(CN2CCOc3ccc(CN4CCN(c5ccc(F)cc5)CC4)cc3C2)cc1 | 0.772 |  |
| Cc1cc(C)n(Cc2cc(C(=O)N(C)Cc3ccncc3C)n[nH]2)n1 |  | 1.06 |
| Cc1cc(-c2cc(F)cc3c2OC(CNC(=O)C2(C)CC2)C3)ccc1F (stereo unspecified) | 0.002 |  |
| c1ccc(CN2CCc3[nH]nc(-c4ccc5c(c4)OCO5)c3C2)nc1 | 0.891 |  |
| CCOC(=O)C1(Cc2ccc(Cl)cc2)CCN(CCO)CC1 |  | 0.959 |
| COc1cc(OC)cc(C(=O)NCC2CCCN(C3CCSCC3)C2)c1 (stereo unspecified) |  | 0.857 |
| O=C1CC(NCC2CC2)CN1CCc1cccc(Cl)c1 (stereo unspecified) |  | 0.9 |
| CC(C)Oc1cccc(C(=O)C2CCCN(C(=O)c3ccc4c(c3)OCO4)C2)c1 (stereo unspecified) |  | 0.739 |
| CC1(C(=O)N2CCCC2C(=O)Nc2ccccc2Oc2cccnc2)CC1 (stereo unspecified) |  | 0.763 |
| Cc1cc(C)n(-c2ccc(NC(=O)C3CCN(C(=O)c4ocnc4C)CC3)cc2)n1 |  | 0.924 |
| Cc1nc(N2CCC(NCc3ccc(-n4cccn4)cc3)CC2)nc2ccc(F)cc12 | 0.476 |  |
| COc1ccc(C(CC(=O)N(C)CC(C)C)c2ccccc2)cc1 (stereo unspecified) |  | 0.604 |
| COc1ccc(C(=O)NC2CCCCCCC2)cc1OC1CCN(C(C)=O)CC1 |  | 1.21 |
| COC(=O)C1CCCCN1C(=O)c1c(OC)cc(=O)n2c1CCN(Cc1cc3ccccc3o1)CC2 (stereo unspecified) | 0.8 |  |
| CCOC(=O)CC1COCCN1Cc1c[nH]nc1-c1cc(OC)c(OC)c(OC)c1 (stereo unspecified) |  | 0.821 |
| CCOc1ccccc1CN1CCN(Cc2ccccc2F)CC1CCO (stereo unspecified) |  | 0.902 |
| CN(Cc1nc(-c2cccc(Cl)c2)no1)C1CCCCC1 |  | 0.486 |
| COc1ccc(/C=C/C(=O)NC2CCCN(Cc3ccccn3)C2)cc1OC (stereo unspecified) |  | 0.956 |
| CC1(C)CC(CNCc2cccnc2Oc2ccc(F)cc2F)CCO1 (stereo unspecified) |  | 0.917 |
| COC(=O)c1ccc(C(=O)NCCN2Cc3cc(C)ccc3OC(C)C2)cc1 (stereo unspecified) | 0.777 |  |
| CC(C)c1ccc(NC2CCCN(C(=O)CCCn3cncn3)C2)cc1 (stereo unspecified) |  | 0.827 |

Look-ups from the list.
Entry for CC1(C(=O)N2CCCC2C(=O)Nc2ccccc2Oc2cccnc2)CC1 (stereo unspecified) under bacterial growth OD600 (polymyxin B 1 µg/mL): 0.763
Entry for c1ccc(CN2CCc3[nH]nc(-c4ccc5c(c4)OCO5)c3C2)nc1 under bacterial growth OD600 (polymyxin B 0.75 µg/mL): 0.891
